{"source": "patent US4459225", "about": "(dated 1984)", "note": "Square brackets hold non-standard residues; d marks the D form. * marks the point of attachment. Boc = CC(C)(C)OC(=O)*; tBu = CC(C)(C)*; For = O=C*"}
{"test": "general procedure: solution-phase peptide synthesis; dicyclohexylcarbodiimide/1-hydroxybenzotriazole; active esters (N-hydroxysuccini)", "conditions": "coupling step, trifluoroacetate", "units": {"step yield": "%"}}
{"substance": "D-N^ε -formyllysyl-glycyl-dehydrophenylalanine-prolinamide-hydrobromide", "step yield": 70}
{"substance": "Boc-Y(tBu)[dK](For)GF-OH", "step yield": 71}
{"substance": "tert.Butyloxycarbonyl-O-tert.butyl-tyrosyl-D-N^ε -formyllysyl-glycyl-dehydrophenylalanyl-prolinamide", "step yield": 43}
{"substance": "BOC-Tyr-D-Lys(For)-Gly-NH-CH(CH2 OH)-CHOH-C6 H5", "step yield": 96}
{"test": "general procedure: solution-phase peptide synthesis; dicyclohexylcarbodiimide/1-hydroxybenzotriazole; active esters (N-hydroxysuccini)", "conditions": "late stage modification step, trifluoroacetate", "units": {"step yield": "%"}}
{"substance": "D-N^ε-formyllysyl-glycyl-dehydrophenylalanine-prolinamide-hydrobromide", "step yield": 96}
{"substance": "L-Tyrosyl-D-N^ε -formyllysyl-glycyl-dehydrophenylalanyl-L-prolinamide-trifluoroacetate", "step yield": 92}
{"substance": "L-Tyrosyl-D-N^ε -formyllysyl-glycyl-L-phenylalanyl-homocysteine-thiolactone-trifluoroacetate", "step yield": 85}
